# In patent publication US20260167673A1, “NOVEL POLYPEPTIDE, POLYPEPTIDE DERIVATIVE AND USE THEREOF” (NANJING ANJI BIOTECHNOLOGY CO., LTD., priority 2023, published 2026):
# Part of at least one peptide drawing is inferred or uncertain, most often the ends. Marks after values point to notes of the source that are not given here. Some compounds share one wording; it may come from a single statement. Where no end group is shown, it is not given here.
# How the values were obtained:
# [1] = test system: human brain astrocytoma cells U87MG; assay: CCK8 proliferation inhibition, U87MG; format: cell-based; conditions: 48 h
# Description: (§1) Incubation was continued for 4 h in a cell incubator, an absorbance was measured at 450 nm, and a proliferation inhibition was calculated. Data was presented as mean±SD, and GraphPad Prism 5.0 statistical software was used. A t-test was used for comparison between two groups, while One-way Anova (Dunnett) was used for comparison among a plurality of groups.
# [2] = test system: human giant cell lung cancer cells 95-D; assay: CCK8 proliferation inhibition, 95-D; format: cell-based; conditions: 48 h
# Description: as §1
# [3] = test system: human lung squamous cell carcinoma cells SK-MES-1; assay: CCK8 proliferation inhibition, SK-MES-1; format: cell-based; conditions: 48 h
# Description: as §1
# [4] = test system: human breast cancer cells SK-BR-3; assay: CCK8 proliferation inhibition, SK-BR-3; format: cell-based; conditions: 48 h
# Description: as §1
# [5] = test system: human breast cancer cells MDA-MB-231; assay: CCK8 proliferation inhibition, MDA-MB-231; format: cell-based; conditions: 48 h
# Description: as §1
# [6] = test system: human colon cancer cells HT29; assay: CCK8 proliferation inhibition, HT29; format: cell-based; conditions: 48 h
# Description: as §1
# [7] = test system: human gastric cancer cells BGC-823; assay: CCK8 proliferation inhibition, BGC-823; format: cell-based; conditions: 48 h
# Description: as §1
# [8] = test system: human bladder transitional cell carcinoma cells T24; assay: CCK8 proliferation inhibition, T24; format: cell-based; conditions: 48 h
# Description: as §1
# [9] = test system: human bladder cancer cells EJ; assay: CCK8 proliferation inhibition, EJ; format: cell-based; conditions: 48 h
# Description: as §1
# [10] = test system: human pancreatic cancer cells ASPC-1; assay: CCK8 proliferation inhibition, ASPC-1; format: cell-based; conditions: 48 h
# Description: as §1
# [11] = test system: human malignant melanoma cells A375; assay: CCK8 proliferation inhibition, A375; format: cell-based; conditions: 48 h
# Description: as §1
# [12] = test system: human histiocytic lymphoma cells U937; assay: CCK8 proliferation inhibition, U937; format: cell-based; conditions: 48 h
# Description: as §1
# [13] = test system: human acute promyelocytic leukemia cells NB4; assay: CCK8 proliferation inhibition, NB4; format: cell-based; conditions: 48 h
# Description: as §1
# [14] = test system: human acute myeloid leukemia cells KG-1; assay: CCK8 proliferation inhibition, KG-1; format: cell-based; conditions: 48 h
# Description: as §1
# [15] = test system: human ovarian cancer Skvo3 cells; assay: Transwell metastasis inhibition, Skvo3; format: cell-based; conditions: 48 h; for Inhibition (%): Skvo3 metastasis
# Description: Melanoma, cervical cancer, ovarian cancer, liver cancer, and lung cancer cells were seeded into transwell chambers, with 100 μL per well. Different doses of the HMMW micropeptide and the novel polypeptide HMMW15-51 were added to each chamber as a treatment group, while no drug was added to a blank group. Then, 0.6 mL of a complete culture medium containing 10% FBS was added to the lower chambers of the transwell to stimulate cell metastasis, and the cells were cultured at 5% CO2 and 37° C. for 48 h. The culture solution was discarded from the wells. The cells were fixed with methanol at room temperature for 30 min, stained with 0.1% crystal violet at room temperature for 10 min, and rinsed with clean water. The upper layer nonmetastatic cells were wiped off with a cotton swab. The cells were observed under a microscope, and four fields of view were selected to take photos and count the cells. A metastasis inhibition (MI) was calculated according to a formula: […]
# where Ntest represents the number of cell metastases in the treatment group, and Ncontrol represents the number of cell metastases in the blank control group.
# Data was presented as mean±SD, and GraphPad Prism 5.0 statistical software was used.
# [16] = test system: subcutaneous transplanted tumor model of tongue squamous cell carcinoma cells CAL27; assay: CAL27 subcutaneous transplanted tumor model, long-acting peptides (Example 9); format: in vivo, BALB/c nude mice; conditions: 2.7 μM/kg, intravenously injected every day, 21 days, FIG. 14
sequence,measurement,setting,value
SVEAKMQSTSCSVRKSSTVTAWPAVVLLLSWGQRRGG [HMMW15-51],Inhibition (%),[1]; 50 μM,79.585 ± 4.324 %
same,OD,[1]; 50 μM,0.197 ± 0.042
same,Inhibition (%),[1]; 75 μM,82.487 ± 2.383 %
same,OD,[1]; 75 μM,0.169 ± 0.023
same,Inhibition (%),[1]; 100 μM,88.359 ± 2.440 %
same,OD,[1]; 100 μM,0.112 ± 0.024
same,Inhibition (%),[2]; 50 μM,76.449 ± 2.914 %
same,OD,[2]; 50 μM,0.259 ± 0.032
same,Inhibition (%),[2]; 75 μM,80.789 ± 1.791 %
same,OD,[2]; 75 μM,0.211 ± 0.020
same,Inhibition (%),[2]; 100 μM,86.343 ± 1.600 %
same,OD,[2]; 100 μM,0.150 ± 0.018
same,Inhibition (%),"[3]; SK-MES-1, 50 μM",71.058 ± 1.844 %
same,OD,"[3]; SK-MES-1, 50 μM",0.279 ± 0.018
same,Inhibition (%),"[3]; SK-MES-1, 75 μM",78.942 ± 3.061 %
same,OD,"[3]; SK-MES-1, 75 μM",0.203 ± 0.030
same,Inhibition (%),"[3]; SK-MES-1, 100 μM",87.621 ± 2.501 %
same,OD,"[3]; SK-MES-1, 100 μM",0.119 ± 0.024
same,Inhibition (%),"[4]; SK-BR-3, 50 μM",73.418 ± 1.970 %
same,OD,"[4]; SK-BR-3, 50 μM",0.291 ± 0.022
same,Inhibition (%),"[4]; SK-BR-3, 75 μM",79.592 ± 4.474 %
same,OD,"[4]; SK-BR-3, 75 μM",0.224 ± 0.049
same,Inhibition (%),"[4]; SK-BR-3, 100 μM",88.899 ± 1.746 %
same,OD,"[4]; SK-BR-3, 100 μM",0.122 ± 0.019
same,Inhibition (%),"[5]; MDA-MB-231, 50 μM",72.378 ± 3.406 %
same,OD,"[5]; MDA-MB-231, 50 μM",0.341 ± 0.042
same,Inhibition (%),"[5]; MDA-MB-231, 75 μM",80.757 ± 2.620 %
same,OD,"[5]; MDA-MB-231, 75 μM",0.237 ± 0.032
same,Inhibition (%),"[5]; MDA-MB-231, 100 μM",82.865 ± 2.194 %
same,OD,"[5]; MDA-MB-231, 100 μM",0.211 ± 0.027
same,Inhibition (%),"[6]; HT29, 50 μM",80.246 ± 0.584 %
same,OD,"[6]; HT29, 50 μM",0.192 ± 0.006
same,Inhibition (%),"[6]; HT29, 75 μM",86.717 ± 1.402 %
same,OD,"[6]; HT29, 75 μM",0.129 ± 0.014
same,Inhibition (%),"[6]; HT29, 100 μM",89.456 ± 1.928 %
same,OD,"[6]; HT29, 100 μM",0.103 ± 0.019
same,Inhibition (%),"[7]; BGC-823, 50 μM",69.409 ± 3.800 %
same,OD,"[7]; BGC-823, 50 μM",0.299 ± 0.037
same,Inhibition (%),"[7]; BGC-823, 75 μM",76.511 ± 2.776 %
same,OD,"[7]; BGC-823, 75 μM",0.229 ± 0.027
same,Inhibition (%),"[7]; BGC-823, 100 μM",82.690 ± 2.158 %
same,OD,"[7]; BGC-823, 100 μM",0.169 ± 0.021
same,Inhibition (%),"[8]; T24, 50 μM",78.378 ± 1.184 %
same,OD,"[8]; T24, 50 μM",0.205 ± 0.011
same,Inhibition (%),"[8]; T24, 75 μM",83.363 ± 3.522 %
same,OD,"[8]; T24, 75 μM",0.158 ± 0.033
same,Inhibition (%),"[8]; T24, 100 μM",90.523 ± 1.319 %
same,OD,"[8]; T24, 100 μM",0.090 ± 0.013
same,Inhibition (%),[9]; 50 μM,64.142 ± 1.270 %
same,OD,[9]; 50 μM,0.439 ± 0.016
same,Inhibition (%),[9]; 75 μM,71.798 ± 1.375 %
same,OD,[9]; 75 μM,0.345 ± 0.017
same,Inhibition (%),[9]; 100 μM,86.185 ± 4.258 %
same,OD,[9]; 100 μM,0.169 ± 0.052
same,Inhibition (%),"[10]; ASPC-1, 50 μM",64.562 ± 6.146 %
same,OD,"[10]; ASPC-1, 50 μM",0.363 ± 0.063
same,Inhibition (%),"[10]; ASPC-1, 75 μM",77.188 ± 3.413 %
same,OD,"[10]; ASPC-1, 75 μM",0.234 ± 0.035
same,Inhibition (%),"[10]; ASPC-1, 100 μM",87.179 ± 2.645 %
same,OD,"[10]; ASPC-1, 100 μM",0.131 ± 0.027
same,Inhibition (%),"[11]; A375, 50 μM",63.052 ± 1.491 %
same,OD,"[11]; A375, 50 μM",0.360 ± 0.015
same,Inhibition (%),"[11]; A375, 75 μM",72.357 ± 5.914 %
same,OD,"[11]; A375, 75 μM",0.269 ± 0.058
same,Inhibition (%),"[11]; A375, 100 μM",84.571 ± 4.579 %
same,OD,"[11]; A375, 100 μM",0.150 ± 0.045
same,Inhibition (%),"[12]; U937, 50 μM",55.234 ± 3.264 %
same,OD,"[12]; U937, 50 μM",0.599 ± 0.044
same,Inhibition (%),"[12]; U937, 75 μM",62.787 ± 3.714 %
same,OD,"[12]; U937, 75 μM",0.498 ± 0.050
same,Inhibition (%),"[12]; U937, 100 μM",75.274 ± 2.328 %
same,OD,"[12]; U937, 100 μM",0.331 ± 0.031
same,Inhibition (%),"[13]; NB4, 50 μM",51.578 ± 1.363 %
same,OD,"[13]; NB4, 50 μM",0.685 ± 0.019
same,Inhibition (%),"[13]; NB4, 75 μM",64.390 ± 2.797 %
same,OD,"[13]; NB4, 75 μM",0.504 ± 0.040
same,Inhibition (%),"[13]; NB4, 100 μM",74.988 ± 3.332 %
same,OD,"[13]; NB4, 100 μM",0.354 ± 0.047
same,Inhibition (%),"[14]; KG-1, 50 μM",51.665 ± 1.467 %
same,OD,"[14]; KG-1, 50 μM",0.561 ± 0.017
same,Inhibition (%),"[14]; KG-1, 75 μM",63.863 ± 1.416 %
same,OD,"[14]; KG-1, 75 μM",0.420 ± 0.016
same,Inhibition (%),"[14]; KG-1, 100 μM",72.532 ± 2.815 %
same,OD,"[14]; KG-1, 100 μM",0.319 ± 0.033
same,Number of cell metastases,"[15]; Skvo3, 25 μmol/L",468 ± 65.96
same,Number of cell metastases,"[15]; Skvo3, 50 μmol/L",115 ± 21.48
same,Inhibition (%),[15]; 25 μmol/L,58.90*** %
same,Inhibition (%),[15]; 50 μmol/L,89.87*** %
same,in vivo tumorigenicity of CAL27 cells compared with normal saline control,[16],significantly inhibit
